Measured data: PubChem BioAssay AID1259405 (NCATS, 2018)
Shown is an unselected part of about 50,000 reagents. About 4,000 of them (8%) were called active. 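Mouse siRNA library applied to hamster cells; one well for each siRNA.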 No sequences are given here.

Purpose: 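Knock-downs that lift recombinant protein yield in hamster ovary cells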 (primary screen)
Cells: Chinese hamster CHO-K1 ovary cells with stable secreted eGFP expression
Reagents: single siRNA against mouse genes, 0.8 pmol siRNA per well (2 µl of 400 nM stock)
Time to read-out: 3 days
Measurement: 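Per-well intracellular GFP measured by laser scanning cytometry, plus viability from ATP luminescence, each relative to plate median of non-targeting control wells, in %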
Reading the numbers: GFP, % of control: higher = more GFP per well, higher productivity; viability (ATP), % of control: higher = more viable cells (more ATP)
Rule for the call: 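a knock-down is called active if GFP reaches 120% or more of non-targeting control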

target | PubChem SID | GFP, % of control | viability (ATP), % of control | Outcome
Hgf (GeneID 15234) | SID363574454 | 79.1 | 106 | inactive
Hgf (GeneID 15234) | SID363575510 | 100 | 49.4 | inactive
Hgf (GeneID 15234) | SID363580086 | 70.8 | 78.4 | inactive
Grem2 (GeneID 23893) | SID363540130 | 68.9 | 83.6 | inactive
Grem2 (GeneID 23893) | SID363561431 | 24.8 | 16.8 | inactive
Grem2 (GeneID 23893) | SID363564467 | 118 | 87.5 | inactive
Chi3l1 (GeneID 12654) | SID363569730 | 75.1 | 70.3 | inactive
Chi3l1 (GeneID 12654) | SID363576770 | 65.9 | 61.9 | inactive
Chi3l1 (GeneID 12654) | SID363578178 | 54.9 | 48.8 | inactive
Ppp1r3b (GeneID 244416) | SID363575263 | 99.5 | 104 | inactive
Ppp1r3b (GeneID 244416) | SID363580895 | 93.5 | 89.3 | inactive
Ppp1r3b (GeneID 244416) | SID363583007 | 54.5 | 65.1 | inactive
Haspin (GeneID 14841) | SID363581663 | 26.2 | 23.3 | inactive
Haspin (GeneID 14841) | SID363589157 | 59.1 | 72 | inactive
Or6a2 (GeneID 18317) | SID363544410 | 91.6 | 52.5 | inactive
Or6a2 (GeneID 18317) | SID363550738 | 73.9 | 72.4 | inactive
Or6a2 (GeneID 18317) | SID363557287 | 118 | 104 | inactive
Mybl1 (GeneID 17864) | SID363573668 | 39.1 | 43.8 | inactive
Mybl1 (GeneID 17864) | SID363581412 | 63.8 | 63.7 | inactive
Mybl1 (GeneID 17864) | SID363583876 | 78 | 85.7 | inactive
Fau (GeneID 14109) | SID363539958 | 74.4 | 88.8 | inactive
Fau (GeneID 14109) | SID363561259 | 126 | 103 | active
Fau (GeneID 14109) | SID363564295 | 86.8 | 61.3 | inactive
Mplkip (GeneID 66308) | SID363543708 | 96.1 | 69.8 | inactive
Mplkip (GeneID 66308) | SID363551444 | 109 | 89.8 | inactive
Mplkip (GeneID 66308) | SID363559049 | 87.1 | 74.1 | inactive
Crip3 (GeneID 114570) | SID363572309 | 85.9 | 107 | inactive
Crip3 (GeneID 114570) | SID363574069 | 99.7 | 92 | inactive
LTO1 (GeneID 72284) | SID363554557 | 113 | 58.9 | inactive
LTO1 (GeneID 72284) | SID363568004 | 74.7 | 51.7 | inactive
LTO1 (GeneID 72284) | SID363586063 | 116 | 78.8 | inactive
AU040320 (GeneID 100317) | SID363546818 | 42.9 | 31.7 | inactive
AU040320 (GeneID 100317) | SID363548574 | 69.3 | 69.4 | inactive
AU040320 (GeneID 100317) | SID363560752 | 52.5 | 60 | inactive
Mtmr12 (GeneID 268783) | SID363575162 | 76.4 | 88.6 | inactive
Mtmr12 (GeneID 268783) | SID363580794 | 72.2 | 63.5 | inactive
Mtmr12 (GeneID 268783) | SID363582906 | 105 | 107 | inactive
Mrap (GeneID 77037) | SID363540868 | 66.6 | 80.2 | inactive
Mrap (GeneID 77037) | SID363543319 | 92.3 | 96.7 | inactive
Mrap (GeneID 77037) | SID363552812 | 86.7 | 75.7 | inactive
Dnajc8 (GeneID 68598) | SID363572545 | 66.2 | 80.2 | inactive
Dnajc8 (GeneID 68598) | SID363577825 | 103 | 77.7 | inactive
Dnajc8 (GeneID 68598) | SID363582049 | 91.1 | 121 | inactive
Plekho1 (GeneID 67220) | SID363543809 | 84.5 | 86.8 | inactive
Plekho1 (GeneID 67220) | SID363551545 | 87.1 | 84.8 | inactive
Plekho1 (GeneID 67220) | SID363559150 | 90.2 | 74.9 | inactive
Ntn4 (GeneID 57764) | SID363582448 | 117 | 120 | inactive
Ntn4 (GeneID 57764) | SID363584208 | 86.5 | 90.8 | inactive
Jade1 (GeneID 269424) | SID363540904 | 73.4 | 53.8 | inactive
Jade1 (GeneID 269424) | SID363555531 | 67 | 79.8 | inactive
Jade1 (GeneID 269424) | SID363565820 | 72.9 | 79.8 | inactive
Cyb561 (GeneID 13056) | SID363545269 | 10.5 | 8.23 | inactive
Cyb561 (GeneID 13056) | SID363548782 | 63.5 | 54.9 | inactive
Cyb561 (GeneID 13056) | SID363562588 | 77.4 | 64.1 | inactive
Uqcc1 (GeneID 56046) | SID363543907 | 85.6 | 91.9 | inactive
Uqcc1 (GeneID 56046) | SID363551643 | 59.1 | 72.2 | inactive
Uqcc1 (GeneID 56046) | SID363559248 | 75.8 | 99.2 | inactive
Top2a (GeneID 21973) | SID363568676 | 77.3 | 98.2 | inactive
Top2a (GeneID 21973) | SID363576068 | 71 | 67.3 | inactive
Top2a (GeneID 21973) | SID363578884 | 28.9 | 43.9 | inactive
Cripto (GeneID 21667) | SID363556396 | 19.2 | 40.4 | inactive
Cripto (GeneID 21667) | SID363586846 | 76.5 | 81.1 | inactive
Cripto (GeneID 21667) | SID363588954 | 99.9 | 90.7 | inactive
Arhgap18 (GeneID 73910) | SID363545304 | 134 | 95.8 | active
Arhgap18 (GeneID 73910) | SID363548817 | 98 | 88.5 | inactive
Arhgap18 (GeneID 73910) | SID363562623 | 63.4 | 55.4 | inactive
Manbal (GeneID 69161) | SID363562093 | 51.6 | 50.8 | inactive
Manbal (GeneID 69161) | SID363567231 | 79.6 | 74 | inactive
Manbal (GeneID 69161) | SID363584588 | 87.8 | 71.8 | inactive
Rtn4rl1 (GeneID 237847) | SID363568666 | 142 | 81.9 | active
Rtn4rl1 (GeneID 237847) | SID363576058 | 87.8 | 71.3 | inactive
Rtn4rl1 (GeneID 237847) | SID363578874 | 80.2 | 72.6 | inactive
Or5p81 (GeneID 258308) | SID363544955 | 53.6 | 84.9 | inactive
Or5p81 (GeneID 258308) | SID363551283 | 82.8 | 62 | inactive
Or5p81 (GeneID 258308) | SID363557832 | 46.7 | 68.3 | inactive
Orc5 (GeneID 26429) | SID363554538 | 67.3 | 70.5 | inactive
Orc5 (GeneID 26429) | SID363567985 | 71.5 | 75.5 | inactive
Orc5 (GeneID 26429) | SID363586044 | 68.3 | 85.2 | inactive
Gdpd3 (GeneID 68616) | SID363547374 | 161 | 76.8 | active
Gdpd3 (GeneID 68616) | SID363558143 | 92.3 | 106 | inactive
Gdpd3 (GeneID 68616) | SID363559901 | 73.5 | 87.3 | inactive
Dmrta1 (GeneID 242523) | SID363569512 | 35 | 50.5 | inactive
Dmrta1 (GeneID 242523) | SID363577256 | 71 | 80.8 | inactive
Dmrta1 (GeneID 242523) | SID363578664 | 53.1 | 38.2 | inactive

Taken from above.
Cripto (GeneID 21667) [SID363586846], Outcome → inactive
Entry for Rtn4rl1 (GeneID 237847) [SID363578874] under “GFP, % of control”: 80.2
Entry for Ppp1r3b (GeneID 244416) [SID363575263] in “GFP, % of control”: 99.5
For “Outcome”, Haspin (GeneID 14841) [SID363581663] has inactive
Mplkip (GeneID 66308) [SID363559049], Outcome = inactive
Value for Top2a (GeneID 21973) [SID363568676] in “GFP, % of control”: 77.3
